This passage reports IC50 results from ChEMBL document CHEMBL4321846, “Discovery of a Potent and Selective Oral Inhibitor of ERK1/2 (AZD0364) That Is Efficacious in Both Monotherapy and Combination Therapy in Models of Nonsmall Cell Lung Cancer (NSCLC)” (J Med Chem, 2019).

By UniProt entry, the sequences of proteins in these tests, tags left out. Where a name states a change or a piece, a line headed by the entry shows the natural chain unless it says otherwise.
UniProt Q12809: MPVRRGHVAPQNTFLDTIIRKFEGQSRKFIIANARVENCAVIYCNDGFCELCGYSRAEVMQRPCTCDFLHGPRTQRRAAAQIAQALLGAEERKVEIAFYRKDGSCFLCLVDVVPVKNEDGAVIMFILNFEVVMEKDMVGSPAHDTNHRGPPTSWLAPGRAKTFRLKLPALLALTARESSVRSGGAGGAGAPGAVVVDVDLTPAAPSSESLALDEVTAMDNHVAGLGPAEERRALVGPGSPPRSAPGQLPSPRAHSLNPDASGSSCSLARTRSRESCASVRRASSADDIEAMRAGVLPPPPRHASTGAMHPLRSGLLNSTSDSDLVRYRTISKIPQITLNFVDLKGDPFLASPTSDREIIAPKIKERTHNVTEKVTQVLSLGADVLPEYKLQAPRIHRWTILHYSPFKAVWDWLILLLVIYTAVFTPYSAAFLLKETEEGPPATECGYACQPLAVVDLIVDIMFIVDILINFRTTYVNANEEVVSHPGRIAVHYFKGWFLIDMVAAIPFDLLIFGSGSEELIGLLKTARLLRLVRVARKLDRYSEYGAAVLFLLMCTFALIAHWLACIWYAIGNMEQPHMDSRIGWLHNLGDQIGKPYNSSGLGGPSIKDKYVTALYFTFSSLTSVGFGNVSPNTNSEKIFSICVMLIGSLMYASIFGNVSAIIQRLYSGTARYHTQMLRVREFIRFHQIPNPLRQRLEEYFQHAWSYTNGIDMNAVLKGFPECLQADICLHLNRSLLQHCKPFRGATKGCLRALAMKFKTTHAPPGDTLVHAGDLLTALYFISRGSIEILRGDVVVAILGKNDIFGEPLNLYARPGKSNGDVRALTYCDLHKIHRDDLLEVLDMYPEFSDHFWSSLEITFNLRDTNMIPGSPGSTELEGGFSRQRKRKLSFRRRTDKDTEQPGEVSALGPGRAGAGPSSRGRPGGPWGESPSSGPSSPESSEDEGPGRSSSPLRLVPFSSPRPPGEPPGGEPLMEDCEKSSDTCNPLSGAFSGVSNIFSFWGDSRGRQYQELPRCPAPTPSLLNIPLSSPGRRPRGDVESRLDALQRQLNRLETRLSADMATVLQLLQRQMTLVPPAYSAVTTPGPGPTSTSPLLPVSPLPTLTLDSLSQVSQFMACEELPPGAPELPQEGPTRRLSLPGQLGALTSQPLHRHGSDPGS

Each structure is given as a SMILES string.

The target of the test is Voltage-gated inwardly rectifying potassium channel KCNH2 (Homo sapiens, UniProt Q12809).

`COC[C@H]1Cn2cc(-c3nc(Nc4ccnn4C)ncc3C)cc2C(=O)N1Cc1cccc(C)n1` gave a half-inhibitory concentration (IC50) of 20 µM.
